# Data taken from the supplement of paper PMC7024190.
# Structures can show the parent of a compound that is named as a salt. The list shows a part of the results. Repeats in this data set agree poorly, so a single value says little.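 A first-round screen of about ten thousand compounds sought those raising reporter output, using human embryonic kidney cells briefly transfected with a plasmid carrying a Renilla luciferase gene driven by the HSV-TK promoter.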
# Test system: HEK 293FT
# Experiment: log relative Renilla luciferase luminescence (reporter expression vs reference, reference not stated) (log (base not stated)); higher = higher recombinant reporter expression
# Conditions: 10 µM; time after transfection 48 h
row,Structure (SMILES),log
1,NCC(CS(=O)(=O)O)c1ccc(Cl)cc1 (centres undefined) [Saclofen],0.0505
2,CCN1C[C@]2(COC(=O)c3ccccc3N3C(=O)C[C@H](C)C3=O)CC[C@H](OC)[C@@]34[C@@H]5C[C@H]6[C@H](OC)[C@@H]5[C@](O)(C[C@@H]6OC)[C@](O)([C@@H](OC)[C@H]23)[C@@H]14 [Methyllycaconitine citrate],-0.0634
3,Cc1onc(O)c1CC(N)C(=O)O (racemic),0.13
4,CCC1(C2=NCCN2)Cc2ccccc2O1 (centres undefined) [Efaroxan hydrochloride],0.0438
5,CN1CC[C@@H]2CN3CCc4cccc(c43)[C@@H]2C1 [SDZ SER 082 fumarate],-0.056
6,C=CCN1C[C@H](C)N([C@H](c2ccc(C(=O)N(CC)CC)cc2)c2cccc(O)c2)C[C@H]1C,0.132
7,O=c1[nH]c2ccccc2n1CCCN1CCC(n2c(=O)[nH]c3cc(Cl)ccc32)CC1 [Domperidone],-0.04
8,O=[N+]([O-])c1cc(O)c(O)c([N+](=O)[O-])c1,0.0941
9,CN1CCN(c2ccc3ccccc3n2)CC1 [N-Methylquipazine dimaleate],-0.00108
10,CCCN1CCO[C@@H]2c3cc(O)ccc3OC[C@H]21,-0.076
11,NC(=S)N/N=C/c1coc2ccccc2c1=O.[Cl][Cu][Cl],-0.0423
12,COc1cc2c(cc1O)C(CCc1ccc(Cl)cc1)N(C)CC2 (centres undefined),0.0158
13,Cc1ccc2c(c1)C1(CCN(CCc3nc(-c4ccccc4)oc3C)CC1)OC(=O)N2,-1.47
14,CC(N)Cc1c[nH]c2ccc(O)cc12 (stereo not drawn) [α-Methyl-5-hydroxytryptamine maleate],0.0399
15,CCC[C@@H]1CC2=CC(=O)CC[C@]2(C)[C@H]2CC[C@@]3(C)[C@@H](CC[C@@]3(O)CCC(=O)O)[C@H]12,0.0406
16,CC(C)C[C@H]1C(=O)N2CCC[C@H]2[C@]2(O)O[C@](NC(=O)[C@@H]3C=C4c5cccc6[nH]c(Br)c(c56)C[C@H]4N(C)C3)(C(C)C)C(=O)N12 [Bromocriptine mesylate],0.031
17,CC1=NN=C(c2ccc(N)cc2)c2cc3c(cc2C1)OCO3,0.093
18,C[C@@H]1CC[C@H]2[C@@H](C)C(=O)O[C@@H]3O[C@@]4(C)CC[C@@H]1[C@]32OO4 [Artemisinin],-0.00359
19,CC(C)C[C@@H](N)C1(c2ccc(Cl)cc2)CCC1,-0.096
20,Ic1cncc(OC[C@@H]2CCN2)c1,0.176

row,Structure (SMILES),log
1,CN1CCC(c2c[nH]c3ccc(O)cc23)CC1,0.0958
2,CO[C@]12C[C@@H](COC(=O)c3cncc(Br)c3)CN(C)[C@@H]1Cc1cn(C)c3cccc2c13 [Nicergoline],0.037
3,FC(F)(F)c1cccc(C2=CCN(CCc3ccc4ccccc4c3)CC2)c1 [Xaliproden hydrochloride],-0.247
4,"c1ccc(C2CNCc3ccccc32)cc1 (centres undefined) [4-Phenyl-1,2,3,4-tetrahydroisoquinoline hydrochloride]",-0.0536
5,O=C(Cc1ccc(Cl)c(Cl)c1)N1CCCCC1CN1CCCC1 (centres undefined),-0.0524
6,Oc1ccc2c3c1O[C@H]1c4c(c5ccccc5n4Cc4ccccc4)C[C@@]4(O)C(C2)N(CC2CC2)CC[C@]314 [N-Benzylnaltrindole hydrochloride],0.0656
7,N[C@@H](Cn1oc(=O)[nH]c1=O)C(=O)O [L-Quisqualic acid],-0.0164
8,C=CCN1C[C@H](C)N([C@H](c2ccc(C(=O)N(CC)CC)cc2)c2cccc(OC)c2)C[C@H]1C,-0.044
9,Cc1onc(O)c1CC(N)C(=O)O (racemic) [(RS)-AMPA hydrobromide],0.0534
10,CCNC(=O)[C@H]1O[C@@H](n2cnc3c(N)ncnc32)[C@H](O)[C@@H]1O,0.0481
11,Cc1ncsc1CCCl [Chlormethiazole hydrochloride],-0.135
12,C[C@@]12C(=O)OC(=O)[C@]1(C)[C@H]1CC[C@@H]2O1 [Cantharidin],0.165
13,CN1[C@@H]2CC[C@H]1C[C@@H](OC(c1ccc(F)cc1)c1ccc(F)cc1)C2 [3 α-Bis-(4-fluorophenyl) methoxytropane hydrochloride],-0.0131
14,Cc1nnc2n1-c1sc(CCC(=O)N3CCOCC3)cc1C(c1ccccc1Cl)=NC2,-0.108
15,C#CCOC(=O)C1=CCCN(C)C1 [Arecaidine propargyl ester tosylate],-0.00977
16,Cc1cc(SCc2sc(-c3ccc(C(F)(F)F)c(F)c3)nc2C)ccc1OCC(=O)O,-0.159
17,C(=C\c1ccccc1)/CN1CCN(CCOC(c2ccccc2)c2ccccc2)CC1,0.0219
18,CCCN[C@@H]1CCc2c(OC)cccc2[C@@H]1C [(+)-AJ 76 hydrochloride],0.128
19,CC(C(=O)OC1CC2CCC(C1)N2C)c1ccc(Br)cc1 (centres undefined) [PG-9 maleate],-0.00216

# For reference, part of the list above:
row,Structure (SMILES),log
10,CCNC(=O)[C@H]1O[C@@H](n2cnc3c(N)ncnc32)[C@H](O)[C@@H]1O,0.0481
11,Cc1ncsc1CCCl [Chlormethiazole hydrochloride],-0.135
